Results of single-concentration screens

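Assay of Toxoplasma gondii numbers, read through their beta-galactosidase reporter with a colour substrate. Compounds at 10 µM. The record gives no direction; the compounds picked for IC50 retests had high values, so higher reads as fewer parasites. Size under these conditions: about 67,000 compounds, about 260 of them at 50% or above in at least one test.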

Results are given as percent effect. The record does not define 0% and 100%; most values in the screen are far below 50% and negative numbers occur (in some assays of this library far below -100). This is an unselected part of the compounds tested.

structure,Percent Effect
CN1CCC(CNC(=O)c2cccc(C(F)(F)F)c2)c2ccccc21 (stereo not shown),17.31
CNc1cc2c(nn1)CCN(C(=O)c1cc(F)cc(F)c1)C2,-2.067
Cc1nc(C)n(CC(=O)N2CCCC(c3cc4ccccc4cn3)C2)n1 (stereo not shown),-4
CCC[C@H]1CN(CCOC)C[C@@H]1NC(=O)Cn1cc(C)cn1,-0.5534
CCCn1cnnc1CNCc1c[nH]nc1-c1ccc(F)cc1,22.08
c1ccn2c(C3CCCN3Cc3nc(C4CC4)no3)nnc2c1 (stereo not shown),-10.42
O=C(O)C(F)(F)F.[H][C@@]12CN(C(=O)[C@H]3CCCO3)C[C@]1([H])C(=O)N(CCN1CCCC1)C2,-8.987
CCC[C@H]1CN(S(=O)(=O)c2ccc(CC)s2)C[C@@H]1N,-1.618
O=C(NCc1nnc2n1CCCCC2)N(Cc1ccncc1)C1CC1,1.896
O=C(O)C(F)(F)F.[H][C@@]12CCCO[C@]1([H])[C@H](OCC1CCCC1)CN2c1nnc(C)s1,7.908
Cc1noc(C)c1S(=O)(=O)N1CCC(Oc2cnccn2)CC1,12.61
COc1cccc(F)c1C(=O)N1C[C@@H](CN(C)CCO)[C@@H](CO)C1,4.975
O=C(NCCNc1cc(N2CCCC2)ncn1)c1cnccn1,-8.733
Cc1ccc(C#N)c(N2CCC(c3nccn3CCN(C)C)CC2)n1,-2.863
CCOCCCn1c(NC(=O)c2cnc(C)cn2)nc2ccccc21,-1.222
Cn1ccc(C(=O)NC2CCC23CCN(C(=O)c2cnccn2)CC3)c1 (stereo not shown),-16.23
CCN(CC)C(=O)[C@@H]1C[C@@H](N)CN1C(=O)c1cc2c([nH]c1=O)CCC2,7.173
CC(C)CS(=O)(=O)N1CCC2(CC1)CCn1c(-c3cnn(C)c3)cnc12,1.033
Cc1ccc(-n2cc(C(=O)NCC(C)Cn3cccn3)nn2)cc1 (stereo not shown),-2.328
COc1ccc(CN2C[C@@H](F)[C@@H](OCc3nc4cnccc4[nH]3)C2)cn1,-5.776

2 of the entries, repeated:

structure,Percent Effect
Cn1ccc(C(=O)NC2CCC23CCN(C(=O)c2cnccn2)CC3)c1 (stereo not shown),-16.23
O=C(O)C(F)(F)F.[H][C@@]12CCCO[C@]1([H])[C@H](OCC1CCCC1)CN2c1nnc(C)s1,7.908

Measurements from “University of Dundee, Small-Polar-MMV Screening Library” (2021), ChEMBL document CHEMBL3988442.